Patent US20230141630
Construct, isoform or probe ends are uncertain for at least one entry. For some assays here: Tags and fusion partners may be left off the protein sequences shown.

How the values were obtained:
Test in all cases: binding assay
[1] = test system: Group II Intron-RT (unspecified); conditions: concatemeric cDNA, 55 C; purified recombinant protein
[2] = test system: Induro RT (Group II Intron-RT); conditions: concatemeric cDNA >10 kb, 55 C 1 h; higher RT-qPCR sensitivity in FIG. 5B; purified recombinant protein; protein details: New England Biolabs
[3] = biological target: T1, TGIRT (Group II Intron-RT) (UniProt E2GM63); conditions: concatemeric cDNA >10 kb, 55 C 1 h; purified recombinant protein; protein details: Ingex
T1 sequence (looked up, limits assumed): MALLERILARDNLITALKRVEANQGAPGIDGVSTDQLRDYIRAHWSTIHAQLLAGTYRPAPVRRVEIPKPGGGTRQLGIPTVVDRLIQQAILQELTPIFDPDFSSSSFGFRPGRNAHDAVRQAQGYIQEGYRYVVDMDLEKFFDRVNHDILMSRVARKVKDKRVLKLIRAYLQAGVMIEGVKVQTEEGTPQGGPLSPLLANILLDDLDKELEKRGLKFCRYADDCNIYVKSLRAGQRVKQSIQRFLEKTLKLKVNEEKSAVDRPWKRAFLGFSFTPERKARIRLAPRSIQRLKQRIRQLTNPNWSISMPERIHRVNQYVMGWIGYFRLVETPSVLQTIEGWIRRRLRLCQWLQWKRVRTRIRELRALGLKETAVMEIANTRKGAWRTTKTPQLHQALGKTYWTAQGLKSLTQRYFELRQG

“AAAATCCGTTGACCTTAAACGGTCGTGTGGGTTCAAGTCCCTCCACCCCCACGCCGGAAACGCAATAGCCGAAAAACAAAAAACAAAAAAACCCCCCTCTCCCTCCCCCCCTAACGTTACTGGCCGAAGCCGCTTGGAATAAGGCCGGTGTGCGTTTGTCTATATGTTATTTTCCACCATATTGCCGTCTTTTGGCAATGTGAGGGCCCGGAAACCTGGCCCTGTCTTCTTGACGAGCATTCCTAGGGGTCTTTCCCCTCTCGCCAAAGGAATGCAAGGTCTGTTGAATGTCGTAAAAAAACAAAAAACAAAACGGCTATTATGCGTTACCGGCGAGACGCTACGGACTT / TCCAGAGGAACTGCTTCCTTC [circRNA 0.4 kb (Example 2) with DNA primer]”: binds [1].
“AAAATCCGTTGACCTTAAACGGTCGTGTGGGTTCAAGTCCCTCCACCCCCACGCCGGAAACGCAATAGCCGAAAAACAAAAAACAAAAAAACCCCCCTCTCCCTCCCCCCCTAACGTTACTGGCCGAAGCCGCTTGGAATAAGGCCGGTGTGCGTTTGTCTATATGTTATTTTCCACCATATTGCCGTCTTTTGGCAATGTGAGGGCCCGGAAACCTGGCCCTGTCTTCTTGACGAGCATTCCTAGGGGTCTTTCCCCTCTCGCCAAAGGAATGCAAGGTCTGTTGAATGTCGTTGGAGGTGCTCAAAGAGATGGAAGCCAATGCCCGGAAAGCTGGCTGCACCAGGGGCTGTCTGATCTGCCTGTCCCACATCAAGTGCACGCCCAAGATGAAGAAGTTCATCCCAGGACGCTGCCACACCTACGAAGGCGACAAAGAGTCCGCACAGGGCGGCATAGGCGAGGCGATCGTCGACATTCCTGAGATTCCTGGGTTCAAGGACTTGGAGCCCATGGAGCAGTTCATCGCACAGGTCGATCTGTGTGTGGACTGCACAACTGGCTGCCTCAAAGGGCTTGCCAACGTGCAGTGTTCTGACCTGCTCAAGAAGTGGCTGCCGCAACGCTGTGCGACCTTTGCCAGCAAGATCCAGGGCCAGGTGGACAAGATCAAGGGGGCCGGTGGTGACTAAAAAAAACAAAAAACAAAACGGCTATTATGCGTTACCGGCGAGACGCTACGGACTT / TCCAGAGGAACTGCTTCCTTC [circRNA 0.8 kb with DNA primer]”: binds [1].
“AAAATCCGTTGACCTTAAACGGTCGTGTGGGTTCAAGTCCCTCCACCCCCACGCCGGAAACGCAATAGCCGAAAAACAAAAAACAAAAAAACCCCCCTCTCCCTCCCCCCCTAACGTTACTGGCCGAAGCCGCTTGGAATAAGGCCGGTGTGCGTTTGTCTATATGTTATTTTCCACCATATTGCCGTCTTTTGGCAATGTGAGGGCCCGGAAACCTGGCCCTGTCTTCTTGACGAGCATTCCTAGGGGTCTTTCCCCTCTCGCCAAAGGAATGCAAGGTCTGTTGAATGTCGTGAAGGAAGCAGTTCCTCTGGAAGCTTCTTGAAGACAAACAACGTCTGTAGCGACCCTTTGCAGGCAGCGGAACCCCCCACCTGGCGACAGGTGCCTCTGCGGCCAAAAGCCACGTGTATAAGATACACCTGCAAAGGCGGCACAACCCCAGTGCCACGTTGTGAGTTGGATAGTTGTGGAAAGAGTCAAATGGCTCTCCTCAAGCGTATTCAACAAGGGGCTGAAGGATGCCCAGAAGGTACCCCATTGTATGGGATCTGATCTGGGGCCTCGGTGCACATGCTTTACATGTGTTTAGTCGAGGTTAAAAAACGTCTAGGCCCCCCGAACCACGGGGACGTGGTTTTCCTTTGAAAAACACGATGATAATATGGCCACAACCATGGGAGTCAAAGTTCTGTTTGCCCTGATCTGCATCGCTGTGGCCGAGGCCAAGCCCACCGAGAACAACGAAGACTTCAACATCGTGGCCGTGGCCAGCAACTTCGCGACCACGGATCTCGATGCTGACCGCGGGAAGTTGCCCGGCAAGAAGCTGCCGCTGGAGGTGCTCAAAGAGATGGAAGCCAATGCCCGGAAAGCTGGCTGCACCAGGGGCTGTCTGATCTGCCTGTCCCACATCAAGTGCACGCCCAAGATGAAGAAGTTCATCCCAGGACGCTGCCACACCTACGAAGGCGACAAAGAGTCCGCACAGGGCGGCATAGGCGAGGCGATCGTCGACATTCCTGAGATTCCTGGGTTCAAGGACTTGGAGCCCATGGAGCAGTTCATCGCACAGGTCGATCTGTGTGTGGACTGCACAACTGGCTGCCTCAAAGGGCTTGCCAACGTGCAGTGTTCTGACCTGCTCAAGAAGTGGCTGCCGCAACGCTGTGCGACCTTTGCCAGCAAGATCCAGGGCCAGGTGGACAAGATCAAGGGGGCCGGTGGTGACTAAAAAAAACAAAAAACAAAACGGCTATTATGCGTTACCGGCGAGACGCTACGGACTT / TCCAGAGGAACTGCTTCCTTC [circRNA 1.3 kb with DNA primer]”: binds [1]; binds [2]; binds [3].
